Some of the results follow.
Compound: CC1Cc2ccccc2N1C(=O)C1CCCN(C1)C(=O)CCl (mixture of isomers) [TRIM25 ligand 11 (diastereomer mixture)]
Assay: probe-labelled cysteine peptide fold change vs DMSO (competition) (log2 fold change); higher = less target engagement (more negative = stronger competition)
Conditions: THP-1, incubation time: 4 h
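Also: competitive chemoproteomic profiling in live THP-1 cells with an iodoacetamide desthiobiotin (IA-DTB) probe, comparing probe-labelled peptide intensities in compound-treated cells against DMSO-treated controls.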

Protein sequences, listed by entry. Tags and fused reporters are not part of them. Lines headed by an entry give the natural chain unless they say otherwise; changes in a name come on top.
UniProt O75122: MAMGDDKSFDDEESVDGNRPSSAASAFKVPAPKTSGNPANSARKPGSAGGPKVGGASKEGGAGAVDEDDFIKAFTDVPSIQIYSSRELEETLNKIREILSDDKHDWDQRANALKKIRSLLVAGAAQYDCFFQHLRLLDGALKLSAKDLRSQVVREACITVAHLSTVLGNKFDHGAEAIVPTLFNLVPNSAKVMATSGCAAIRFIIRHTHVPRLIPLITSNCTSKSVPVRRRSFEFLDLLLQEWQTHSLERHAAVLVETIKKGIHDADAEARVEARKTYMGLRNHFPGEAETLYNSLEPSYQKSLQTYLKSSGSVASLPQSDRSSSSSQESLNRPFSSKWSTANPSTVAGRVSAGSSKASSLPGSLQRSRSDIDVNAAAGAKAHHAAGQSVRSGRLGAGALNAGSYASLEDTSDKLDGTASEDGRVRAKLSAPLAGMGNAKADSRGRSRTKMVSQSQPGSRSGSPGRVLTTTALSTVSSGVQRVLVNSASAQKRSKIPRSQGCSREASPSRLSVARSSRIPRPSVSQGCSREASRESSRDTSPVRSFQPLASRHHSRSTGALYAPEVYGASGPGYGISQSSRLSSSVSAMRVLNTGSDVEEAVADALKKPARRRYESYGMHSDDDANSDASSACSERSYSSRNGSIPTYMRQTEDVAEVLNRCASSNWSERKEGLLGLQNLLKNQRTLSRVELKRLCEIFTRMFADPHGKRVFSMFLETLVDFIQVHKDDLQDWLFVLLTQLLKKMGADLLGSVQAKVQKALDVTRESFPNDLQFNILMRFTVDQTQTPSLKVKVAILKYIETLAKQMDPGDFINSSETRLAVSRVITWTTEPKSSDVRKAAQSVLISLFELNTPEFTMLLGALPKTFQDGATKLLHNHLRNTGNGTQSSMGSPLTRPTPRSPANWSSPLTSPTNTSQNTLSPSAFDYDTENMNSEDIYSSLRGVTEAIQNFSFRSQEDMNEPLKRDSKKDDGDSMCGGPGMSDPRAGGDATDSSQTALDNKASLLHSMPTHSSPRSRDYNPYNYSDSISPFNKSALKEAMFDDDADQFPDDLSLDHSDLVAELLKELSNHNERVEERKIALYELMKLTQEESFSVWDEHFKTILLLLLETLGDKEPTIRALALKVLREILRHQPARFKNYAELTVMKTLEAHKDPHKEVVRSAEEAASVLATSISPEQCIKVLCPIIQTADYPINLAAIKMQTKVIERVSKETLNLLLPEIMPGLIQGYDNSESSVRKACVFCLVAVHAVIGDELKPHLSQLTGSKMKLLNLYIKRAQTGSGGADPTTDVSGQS
UniProt Q9HCK8: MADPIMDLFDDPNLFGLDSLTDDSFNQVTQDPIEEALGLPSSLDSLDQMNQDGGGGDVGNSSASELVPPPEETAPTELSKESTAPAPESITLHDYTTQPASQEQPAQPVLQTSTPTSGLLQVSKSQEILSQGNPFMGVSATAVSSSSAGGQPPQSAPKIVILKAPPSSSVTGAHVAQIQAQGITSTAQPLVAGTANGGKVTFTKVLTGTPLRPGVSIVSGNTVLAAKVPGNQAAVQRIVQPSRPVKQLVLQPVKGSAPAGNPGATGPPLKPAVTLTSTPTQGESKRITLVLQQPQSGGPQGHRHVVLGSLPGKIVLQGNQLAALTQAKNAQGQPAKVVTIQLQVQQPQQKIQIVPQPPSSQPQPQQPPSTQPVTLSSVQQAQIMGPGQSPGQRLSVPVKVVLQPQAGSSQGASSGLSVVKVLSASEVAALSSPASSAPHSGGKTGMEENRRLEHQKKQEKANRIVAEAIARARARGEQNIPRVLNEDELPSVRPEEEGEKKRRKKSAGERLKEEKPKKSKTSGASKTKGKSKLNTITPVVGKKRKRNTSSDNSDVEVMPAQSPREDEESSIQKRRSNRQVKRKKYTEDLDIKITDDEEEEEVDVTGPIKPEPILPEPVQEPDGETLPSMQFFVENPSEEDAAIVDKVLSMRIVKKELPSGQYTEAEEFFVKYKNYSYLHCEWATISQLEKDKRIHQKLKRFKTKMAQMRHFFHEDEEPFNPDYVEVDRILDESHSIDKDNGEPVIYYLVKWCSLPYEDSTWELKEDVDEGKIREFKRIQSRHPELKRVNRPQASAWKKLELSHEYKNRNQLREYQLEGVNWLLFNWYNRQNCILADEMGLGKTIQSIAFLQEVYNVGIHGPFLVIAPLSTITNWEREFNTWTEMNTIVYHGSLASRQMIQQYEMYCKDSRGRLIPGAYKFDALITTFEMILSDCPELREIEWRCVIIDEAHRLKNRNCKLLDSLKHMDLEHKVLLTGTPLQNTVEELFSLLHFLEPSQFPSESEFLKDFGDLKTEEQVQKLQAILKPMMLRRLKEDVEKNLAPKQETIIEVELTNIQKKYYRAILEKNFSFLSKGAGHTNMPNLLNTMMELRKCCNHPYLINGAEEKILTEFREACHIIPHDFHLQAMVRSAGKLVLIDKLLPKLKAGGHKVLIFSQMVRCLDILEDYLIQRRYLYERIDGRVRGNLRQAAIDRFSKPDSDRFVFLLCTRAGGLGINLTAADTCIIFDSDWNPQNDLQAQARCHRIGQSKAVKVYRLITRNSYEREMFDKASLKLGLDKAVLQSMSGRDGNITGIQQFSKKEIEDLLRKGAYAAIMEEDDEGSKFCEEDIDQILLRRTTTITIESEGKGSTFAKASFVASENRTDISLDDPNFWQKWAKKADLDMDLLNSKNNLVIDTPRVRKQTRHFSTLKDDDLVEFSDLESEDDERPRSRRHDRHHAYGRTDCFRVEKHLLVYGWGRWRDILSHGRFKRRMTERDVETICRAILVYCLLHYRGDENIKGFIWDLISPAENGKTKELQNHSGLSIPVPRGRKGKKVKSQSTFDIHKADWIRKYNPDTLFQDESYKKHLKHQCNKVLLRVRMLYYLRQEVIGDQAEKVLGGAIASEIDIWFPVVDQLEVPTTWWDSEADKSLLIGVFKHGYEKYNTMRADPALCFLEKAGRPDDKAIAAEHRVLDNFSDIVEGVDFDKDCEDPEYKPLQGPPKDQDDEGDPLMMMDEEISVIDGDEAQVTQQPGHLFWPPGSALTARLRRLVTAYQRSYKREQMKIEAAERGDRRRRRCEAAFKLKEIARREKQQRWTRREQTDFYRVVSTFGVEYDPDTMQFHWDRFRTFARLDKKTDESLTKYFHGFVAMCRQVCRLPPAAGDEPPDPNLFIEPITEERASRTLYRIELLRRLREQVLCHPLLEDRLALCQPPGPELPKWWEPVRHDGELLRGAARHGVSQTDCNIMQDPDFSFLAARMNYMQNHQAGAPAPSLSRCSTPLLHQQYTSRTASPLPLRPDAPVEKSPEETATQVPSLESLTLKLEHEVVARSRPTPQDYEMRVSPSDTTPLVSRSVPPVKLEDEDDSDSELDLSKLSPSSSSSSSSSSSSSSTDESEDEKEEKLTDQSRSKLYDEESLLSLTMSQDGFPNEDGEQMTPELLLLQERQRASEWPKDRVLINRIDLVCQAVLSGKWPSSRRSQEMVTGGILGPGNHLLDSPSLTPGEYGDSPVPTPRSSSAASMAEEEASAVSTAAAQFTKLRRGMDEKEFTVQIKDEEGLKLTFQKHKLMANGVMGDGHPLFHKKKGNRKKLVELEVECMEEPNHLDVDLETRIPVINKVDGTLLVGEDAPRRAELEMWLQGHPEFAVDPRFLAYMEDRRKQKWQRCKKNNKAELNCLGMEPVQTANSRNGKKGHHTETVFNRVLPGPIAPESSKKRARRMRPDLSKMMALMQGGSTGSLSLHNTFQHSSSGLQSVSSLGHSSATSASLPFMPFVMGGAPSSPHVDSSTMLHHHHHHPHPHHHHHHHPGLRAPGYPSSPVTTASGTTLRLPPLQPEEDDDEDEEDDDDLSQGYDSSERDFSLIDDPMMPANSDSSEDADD
UniProt P23528, whole entry, looked up: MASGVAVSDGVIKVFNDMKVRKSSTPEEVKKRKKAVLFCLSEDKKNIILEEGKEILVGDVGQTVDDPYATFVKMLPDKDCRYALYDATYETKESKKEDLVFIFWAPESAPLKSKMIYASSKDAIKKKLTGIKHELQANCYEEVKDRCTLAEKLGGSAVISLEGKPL
UniProt Q7Z460: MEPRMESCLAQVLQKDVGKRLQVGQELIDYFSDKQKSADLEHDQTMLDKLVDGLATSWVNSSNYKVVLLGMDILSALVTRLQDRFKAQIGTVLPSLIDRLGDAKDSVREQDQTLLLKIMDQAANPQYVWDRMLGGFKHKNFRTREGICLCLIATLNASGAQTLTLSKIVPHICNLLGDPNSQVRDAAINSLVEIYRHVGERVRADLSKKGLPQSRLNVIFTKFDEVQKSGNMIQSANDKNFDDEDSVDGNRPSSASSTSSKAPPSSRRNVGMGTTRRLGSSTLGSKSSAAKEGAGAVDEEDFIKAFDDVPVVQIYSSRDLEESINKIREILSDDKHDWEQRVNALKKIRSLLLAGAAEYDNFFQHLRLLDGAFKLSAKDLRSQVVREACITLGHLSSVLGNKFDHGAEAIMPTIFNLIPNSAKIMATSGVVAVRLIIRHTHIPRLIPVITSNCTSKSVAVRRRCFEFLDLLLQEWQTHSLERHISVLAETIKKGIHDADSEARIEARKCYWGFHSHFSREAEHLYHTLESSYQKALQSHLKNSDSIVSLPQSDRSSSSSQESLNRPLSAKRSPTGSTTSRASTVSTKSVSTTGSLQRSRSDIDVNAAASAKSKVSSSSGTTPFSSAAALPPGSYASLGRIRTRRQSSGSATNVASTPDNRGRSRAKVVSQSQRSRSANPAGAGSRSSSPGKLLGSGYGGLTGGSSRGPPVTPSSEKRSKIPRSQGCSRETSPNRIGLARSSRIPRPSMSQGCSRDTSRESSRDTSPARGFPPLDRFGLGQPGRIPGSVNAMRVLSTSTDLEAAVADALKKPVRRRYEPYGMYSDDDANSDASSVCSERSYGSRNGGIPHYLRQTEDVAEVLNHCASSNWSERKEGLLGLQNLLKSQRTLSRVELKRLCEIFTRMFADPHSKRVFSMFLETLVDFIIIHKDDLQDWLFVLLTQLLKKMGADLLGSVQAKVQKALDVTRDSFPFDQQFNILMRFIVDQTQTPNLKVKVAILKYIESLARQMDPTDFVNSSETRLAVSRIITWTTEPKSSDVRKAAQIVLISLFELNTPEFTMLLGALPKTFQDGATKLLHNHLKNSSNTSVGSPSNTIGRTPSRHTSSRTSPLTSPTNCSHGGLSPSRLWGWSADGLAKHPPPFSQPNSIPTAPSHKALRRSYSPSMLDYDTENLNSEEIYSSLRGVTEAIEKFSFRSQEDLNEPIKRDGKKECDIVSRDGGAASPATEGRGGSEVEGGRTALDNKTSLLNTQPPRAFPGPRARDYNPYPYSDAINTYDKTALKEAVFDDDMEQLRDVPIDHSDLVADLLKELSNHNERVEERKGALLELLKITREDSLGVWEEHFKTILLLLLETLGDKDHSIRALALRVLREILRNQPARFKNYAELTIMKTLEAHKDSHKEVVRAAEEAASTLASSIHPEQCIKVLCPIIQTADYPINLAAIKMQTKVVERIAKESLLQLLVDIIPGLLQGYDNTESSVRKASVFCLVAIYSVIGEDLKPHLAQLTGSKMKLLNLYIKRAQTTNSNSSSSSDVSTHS
UniProt Q9UHD1: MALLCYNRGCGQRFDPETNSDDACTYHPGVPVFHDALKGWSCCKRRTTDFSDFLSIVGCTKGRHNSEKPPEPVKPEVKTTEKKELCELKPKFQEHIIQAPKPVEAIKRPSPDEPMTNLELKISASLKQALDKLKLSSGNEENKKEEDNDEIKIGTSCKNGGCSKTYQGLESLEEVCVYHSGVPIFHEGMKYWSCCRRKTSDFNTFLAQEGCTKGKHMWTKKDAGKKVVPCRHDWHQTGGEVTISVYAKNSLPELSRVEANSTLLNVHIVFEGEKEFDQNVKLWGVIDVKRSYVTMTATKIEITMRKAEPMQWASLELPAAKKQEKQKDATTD
UniProt Q92989: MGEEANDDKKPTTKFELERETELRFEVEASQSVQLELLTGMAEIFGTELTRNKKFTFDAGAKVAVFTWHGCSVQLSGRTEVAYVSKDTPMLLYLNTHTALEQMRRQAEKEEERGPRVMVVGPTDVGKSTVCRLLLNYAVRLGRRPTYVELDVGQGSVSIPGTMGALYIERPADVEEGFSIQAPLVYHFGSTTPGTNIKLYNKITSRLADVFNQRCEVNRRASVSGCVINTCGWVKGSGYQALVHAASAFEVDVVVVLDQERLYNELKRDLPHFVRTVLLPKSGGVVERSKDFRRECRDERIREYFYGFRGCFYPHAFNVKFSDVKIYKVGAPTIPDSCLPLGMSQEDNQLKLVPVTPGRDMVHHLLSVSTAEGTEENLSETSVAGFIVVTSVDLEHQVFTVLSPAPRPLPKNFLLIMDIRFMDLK
UniProt Q9Y696: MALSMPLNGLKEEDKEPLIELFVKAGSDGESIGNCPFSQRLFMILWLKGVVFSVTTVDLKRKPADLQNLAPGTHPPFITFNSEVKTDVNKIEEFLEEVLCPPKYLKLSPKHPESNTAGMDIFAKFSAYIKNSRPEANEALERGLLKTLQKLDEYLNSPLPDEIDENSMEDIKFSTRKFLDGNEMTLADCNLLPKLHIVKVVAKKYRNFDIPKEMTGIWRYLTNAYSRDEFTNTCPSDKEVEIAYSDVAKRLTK

Target | probe-labelled cysteine peptide fold change (10 µM) | probe-labelled cysteine peptide fold change (50 µM)
CIAO1_O76071_261_TIYDIAWCQLTGALATACGDDAIR (UniProt O76071) | 0.0119 | -0.00201
CLEC16A_Q2KHT3_566_LATLELSCLLLK (UniProt Q2KHT3) | -0.0394 | 0.129
CIT_O14578_1688_GCHLFGAGK (UniProt O14578) | 0.0388 | 0.0596
CHSY1_Q86X52_48_ASPEGCR (UniProt Q86X52) | -0.172 | 0.088
CLASP2_O75122_221_LIPLITSNCTSK (UniProt O75122) | 0.0126 | 0.0133
CLASP2_O75122_157_EACITVAHLSTVLGNK (UniProt O75122) | 0.303 | 0.0759
CHAF1A_Q13111_761_EFQEHCR (UniProt Q13111) | -0.066 | 0.106
CHD2_O14647_500_DYQLEGLNWLAHSWCK (UniProt O14647) | 0.0194 | 0.087
CKAP5_Q14008_637_TEMPCQALVR (UniProt Q14008) | -0.0126 | -0.234
CLTC_Q00610_436_YESLELCRPVLQQGR (UniProt Q00610) | 0.0378 | 0.0435
CHML_P26374_390_FGNTPFLFPLYGQGEIPQGFCR (UniProt P26374) | -0.369 | 0.227
CIT_O14578_1019_TTCTMLEEQVMDLEALNDELLEK (UniProt O14578) | -0.0394 | 0.0183
CHD8_Q9HCK8_1902_EQVLCHPLLEDR (UniProt Q9HCK8) | 0.0843 | -0.143
CFL2_Q9Y281_80_LLPLNDCR (UniProt Q9Y281) | -0.033 | 0.153
CGAS_Q8N884_446_TAFFHVCTQNPQDSQWDRK (UniProt Q8N884) | -0.0375 | 0.0965
CLUH_O75153_753_DAAAFLLSCQIPGLVK (UniProt O75153) | -0.111 | -0.27
CFL1_P23528_139_HELQANCYEEVKDR (UniProt P23528) | -0.0231 | 0.184
CLPX_O76031_538_CELNVTEDALK (UniProt O76031) | -0.26 | 0.0284
CLTC_Q00610_666_RAVVHTHLLNPEWLVNYFGSLSVEDSLECLR (UniProt Q00610) | -0.162 | 0.251
CKAP5_Q14008_1019_STPTDLILCVPHLYSCLEDR (UniProt Q14008) | -0.0864 | 0.159
CLASP2_O75122_502_SQGCSR (UniProt O75122) | -0.154 | -0.166
CHML_P26374_187_TCMHTVSDK (UniProt P26374) | -0.044 | -0.277
CLIP1_P30622_265_YFQCQPK (UniProt P30622) | 0.00441 | 0.153
CISD3_P0C7P0_100_MVALCTCK (UniProt P0C7P0) | 0.0725 | 0.0818
CKAP5_Q14008_1026_STPTDLILCVPHLYSCLEDR (UniProt Q14008) | -0.0301 | 0.0263
CIT_O14578_356_FEGLCCHPFFSK (UniProt O14578) | -0.0384 | 0.379
CLTC_Q00610_151_HSSLAGCQIINYR (UniProt Q00610) | 0.274 | -0.00881

Target | probe-labelled cysteine peptide fold change (10 µM) | probe-labelled cysteine peptide fold change (50 µM)
CHEK1_O14757_48_AVDCPENIK (UniProt O14757) | 0.214 | -0.0169
CKAP5_Q14008_1795_ILDHLTMIDNKNESELEAHLCR (UniProt Q14008) | -0.154 | -0.261
CHPF_Q8IZ52_243_YCHGGFGVLLSR (UniProt Q8IZ52) | -0.105 | 0.0727
CIB1_Q99828_134_LVNCLTGEGEDTR (UniProt Q99828) | -0.0273 | -0.157
CLTC_Q00610_436_FQSVPAQPGQTSPLLQYFGILLDQGQLNKYESLELCRPVLQQGR (UniProt Q00610) | -0.348 | -0.341
CHD8_Q9HCK8_2300_LVELEVECMEEPNHLDVDLETR (UniProt Q9HCK8) | 0.185 | -0.423
CHD7_Q9P2D1_1101_CVVIDEAHR (UniProt Q9P2D1) | 0.0726 | 0.0113
CIAO1_O76071_245_CICTLSGFHSR (UniProt O76071) | 0.0372 | -0.0452
CIP2A_Q8TCG1_6_MDSTACLK (UniProt Q8TCG1) | -0.0544 | -0.151
CGAS_Q8N884_199_CDSAFR (UniProt Q8N884) | -0.0504 | 0.067
CLPB_Q9H078_267_GCTALHYAVLADDYR (UniProt Q9H078) | 0.333 | 0.3
CLASP1_Q7Z460_173_IVPHICNLLGDPNSQVR (UniProt Q7Z460) | -0.0937 | 0.0418
CIAPIN1_Q6FI81_288_CASCPYLGMPAFKPGEK (UniProt Q6FI81) | -0.0087 | -0.228
CFL1_P23528_147_DRCTLAEK (UniProt P23528) | 0.00754 | -0.221
CIAO1_O76071_34_CWFLAWNPAGTLLASCGGDRR (UniProt O76071) | -0.439 | -0.171
CHORDC1_Q9UHD1_86_ELCELK (UniProt Q9UHD1) | 0.154 | 0.206
CLIC1_O00299_223_EEFASTCPDDEEIELAYEQVAK (UniProt O00299) | 0.0322 | -0.023
CHURC1_Q8WUH1_44+60_GNTCLENGSFLLNFTGCAVCSK (UniProt Q8WUH1) | 0.0773 | -0.0259
CLPB_Q9H078_572_INEIVYFLPFCHSELIQLVNK (UniProt Q9H078) | 0.00906 | 0.06
CHAF1B_Q13112_191_SYVQGVTWDPLGQYVATLSCDR (UniProt Q13112) | 0.272 | 0.00625
CFAP36_Q96G28_138_NGVLPDCLTDGSDVVSDLEHEEMK (UniProt Q96G28) | -0.107 | -0.313
CHAMP1_Q96JM3_41_GTDYENVQIHMGTIHPEFCDEMDAGGLGK (UniProt Q96JM3) | 0.226 | -0.0855
CHTF8_P0CG13_83_HTPGDQDCDELGR (UniProt P0CG13) | 0.377 | 0.229
CHORDC1_Q9UHD1_211_KTSDFNTFLAQEGCTK (UniProt Q9UHD1) | 0.0224 | -0.115
CLUH_O75153_1196_CLTQQAVALQR (UniProt O75153) | -0.00877 | -0.228
CLTC_Q00610_926+934_GQCDLELINVCNENSLFK (UniProt Q00610) | -0.0773 | 0.0843
CLTC_Q00610_666_AVVHTHLLNPEWLVNYFGSLSVEDSLECLR (UniProt Q00610) | 0.248 | 0.283

Target | probe-labelled cysteine peptide fold change (10 µM) | probe-labelled cysteine peptide fold change (50 µM)
CLIC1_O00299_89_IEEFLEAVLCPPRYPK (UniProt O00299) | 0.0826 | 0.0584
CLP1_Q92989_71_VAVFTWHGCSVQLSGR (UniProt Q92989) | -0.13 | 0.296
CISD2_Q8N5K1_110_TFPACDGSHNK (UniProt Q8N5K1) | -0.034 | -0.153
CFL1_P23528_139_HELQANCYEEVK (UniProt P23528) | -0.0396 | -0.169
CLTCL1_P53675_778_LTDQLPLIIVCDR (UniProt P53675) | 0.341 | 0.417
CHD8_Q9HCK8_1913_LALCQPPGPELPK (UniProt Q9HCK8) | -0.0272 | -0.0498
CLP1_Q92989_311_GCFYPHAFNVK (UniProt Q92989) | 0.139 | 0.0546
CLIC1_O00299_24_IGNCPFSQR (UniProt O00299) | -0.0317 | 0.0307
CIT_O14578_105_SLVGCGHFAEVQVVR (UniProt O14578) | -0.109 | 0.0477
CGGBP1_Q9UFW8_43_LFCTSCNVVLNHVR (UniProt Q9UFW8) | 0.0229 | 0.128
CIAO1_O76071_19+34_CWFLAWNPAGTLLASCGGDR (UniProt O76071) | -0.0946 | 0.248
CIR1_Q86X95_10_SFANFMCK (UniProt Q86X95) | -0.0223 | -0.206
CHUK_O15111_30_LGTGGFGNVCLYQHR (UniProt O15111) | -0.101 | 0.0455
CHTF18_Q8WVB6_373_VALLCGPPGLGK (UniProt Q8WVB6) | 0.0484 | 0.138
CHM_P24386_444_IISEHFLVEDSYFPENMCSR (UniProt P24386) | 0.346 | -0.162
CKAP5_Q14008_1360_AECLEELGCLVESYGMNVCQPTPGK (UniProt Q14008) | -0.0127 | 0.116
CKAP5_Q14008_1203_TQMSSCVAK (UniProt Q14008) | 0.0255 | -0.0344
CHD4_Q14839_1018+1019_CCNHPYLFPVAAMEAPK (UniProt Q14839) | -0.12 | -0.0493
CHD2_O14647_500_KQPAYLGGENLELRDYQLEGLNWLAHSWCK (UniProt O14647) | -0.2 | -0.0236
CLIC4_Q9Y696_189_FLDGNEMTLADCNLLPK (UniProt Q9Y696) | 0.121 | -0.00677
CLASP1_Q7Z460_453_LIPVITSNCTSK (UniProt Q7Z460) | 0.139 | 0.144
CHCHD3_Q9NX63_112_ERICSEEER (UniProt Q9NX63) | -0.235 | -0.228
CKAP5_Q14008_1795_NESELEAHLCR (UniProt Q14008) | 0.0496 | 0.0689
CLTC_Q00610_1573_RECFGACLFTCYDLLRPDVVLETAWR (UniProt Q00610) | 0.32 | 0.0387
CHI3L1_P36222_41_EGDGSCFPDALDR (UniProt P36222) | 0.0668 | -0.042
CLIC4_Q9Y696_234_DEFTNTCPSDK (UniProt Q9Y696) | 0.0598 | -0.00675

Reference: the supplement of paper PMC12067093, “Discovery and optimisation of a covalent ligand for TRIM25 and its application to targeted protein ubiquitination” (Chemical Science, 2025)
